# Measured values reported in patent CN111196850A.
# Results are given in words; binding and its absence hold for the method and conditions named. Some binding calls cover weakened binding; strength is not graded here.
# Biological target: rhTSLP-mFc融合蛋白 (human)
# Assay: ELISA: rhTSLP-mFc coated, goat anti-human IgG-HRP detection
row,Binder,binding
1,"人源化单克隆抗体1K1/1H2 (antibody, human IgG1, kappa, V domains shown) VH: EVKLVESGGGLVQPGGSLKLSCAASGFTFSSFGMNWVRQAPGKGLEWVAYISSGSSIIYYADSVKGRFTISRDNPKNSLYLQMNSLRDEDTAVYYCAREPYGYDVYYFDYWGQGTTVTVSS VL: DIVMTQSPASLAVSLGQRATITCKASQSIDYDGDSYMNWYQQKPGQPPKLLIYAASNLDSGVPARFSGSGSGTDFTLTIHPVEPEDFATYYCQQSNEDPYTFGGGTKVEIKR",binds
2,"人源化单克隆抗体1K2/1H2 (antibody, human IgG1, kappa, V domains shown) VH: EVKLVESGGGLVQPGGSLKLSCAASGFTFSSFGMNWVRQAPGKGLEWVAYISSGSSIIYYADSVKGRFTISRDNPKNSLYLQMNSLRDEDTAVYYCAREPYGYDVYYFDYWGQGTTVTVSS VL: DIVLTQSPASLAVSLGQRATITCKASQSIDYDGDSYLNWYQQKPGQPPKLLIYAASNKDSGVPARFSGSGSGTDFTLTINPVEAEDFAVYYCQQSNEDPYTFGGGTKVEIKR",binds
3,"人源化单克隆抗体1K3/1H2 (antibody, human IgG1, kappa, V domains shown) VH: EVKLVESGGGLVQPGGSLKLSCAASGFTFSSFGMNWVRQAPGKGLEWVAYISSGSSIIYYADSVKGRFTISRDNPKNSLYLQMNSLRDEDTAVYYCAREPYGYDVYYFDYWGQGTTVTVSS VL: DIVMTQSPASLAVSPGQRATISCKASQSIDYDGDSYMNWYQQKPGQPPKLLIYAASNLDTGIPARFSGSGSGTDFTLTISSVEEEDTATYYCQQSNEDPYTFGGGTKVEIKR",binds
